Results: PMC5684413
No constants are given. Whether binding was seen depends on the method and setting. For some assays here: In cells and extracts the contact can be indirect. Some results given as binding are weak or reduced against the parent protein; the word gives no strength. For some assays here: Tags and fused reporters may be left off the sequences shown.

Chains of the proteins cited; added tags and fusions are not shown. Lines headed by an entry give the natural chain unless they say otherwise; changes in a name come on top. Residues count along the entry.
UniProt Q96EB6: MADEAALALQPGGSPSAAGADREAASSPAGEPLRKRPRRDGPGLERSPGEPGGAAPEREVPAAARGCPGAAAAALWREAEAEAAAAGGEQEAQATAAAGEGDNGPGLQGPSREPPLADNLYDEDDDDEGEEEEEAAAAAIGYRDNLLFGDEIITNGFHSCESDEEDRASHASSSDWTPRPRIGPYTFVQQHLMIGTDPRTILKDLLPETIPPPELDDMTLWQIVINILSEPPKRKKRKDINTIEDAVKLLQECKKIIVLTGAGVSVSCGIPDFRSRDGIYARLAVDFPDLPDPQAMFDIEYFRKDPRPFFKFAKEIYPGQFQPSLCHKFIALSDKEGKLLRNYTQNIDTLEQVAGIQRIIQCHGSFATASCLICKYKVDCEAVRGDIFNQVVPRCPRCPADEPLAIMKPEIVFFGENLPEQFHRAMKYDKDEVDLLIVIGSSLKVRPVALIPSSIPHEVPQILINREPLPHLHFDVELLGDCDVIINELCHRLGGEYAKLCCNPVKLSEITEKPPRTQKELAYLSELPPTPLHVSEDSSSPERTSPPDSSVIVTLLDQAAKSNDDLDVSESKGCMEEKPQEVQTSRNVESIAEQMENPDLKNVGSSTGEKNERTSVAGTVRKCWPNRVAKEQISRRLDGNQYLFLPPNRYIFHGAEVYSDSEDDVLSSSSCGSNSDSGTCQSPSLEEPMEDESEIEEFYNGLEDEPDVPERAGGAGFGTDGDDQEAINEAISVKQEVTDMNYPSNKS
GST-SIRT1 C-terminal domain (aa 500–747): residues 500-747 of Q96EB6

Legend:
[1] = target: SIRT1 (endogenous) (human (endogenous in NCI-H1299)) (UniProt Q96EB6); assay: co-IP; endogenous proteins from NCI-H1299 whole-cell extracts (NP40 lysis buffer); IP with anti-SIRT1 or anti-OGT antibody, immunoblot; control IgG and SIRT1- or OGT-silenced cells as controls
[2] = target: SIRT1 (endogenous) (human (endogenous in NCI-H1299)) (UniProt Q96EB6); assay: condition: only cells lysed in 1% SDS lysis buffer and then diluted 10-fold with NP40 lysis buffer; co-IP; cells lysed in 1% SDS lysis buffer, then diluted 10-fold with NP40 lysis buffer (to denature proteins and disrupt complexes); IP with anti-SIRT1 antibody, immunoblot
[3] = target: GST-SIRT1 C-terminal domain (aa 500–747) (human) (UniProt Q96EB6); assay: pull-down; GST-SIRT1 deletion mutants (100–200 ng) bound on GS4B beads, purified OGT (300 ng), overnight at 4 °C, washed three times with NP40 lysis buffer; both purified
[4] = target: Flag-tagged SIRT1^S549A (human) (UniProt Q96EB6); assay: co-IP; HA-OGT and Flag-tagged wtSIRT1 or SIRT1^S549A co-transfected into NCI-H1299 cells; IP with anti-Flag antibody, immunoblot with anti-HA and anti-Flag
[5] = target: Flag-tagged wtSIRT1 (human) (UniProt Q96EB6); assay: as above

B1: O-GlcNAc transferase (OGT), endogenous (enzyme, UniProt O15294 1-1046)
chain: MASSVGNVADSTEPTKRMLSFQGLAELAHREYQAGDFEAAERHCMQLWRQEPDNTGVLLLLSSIHFQCRRLDRSAHFSTLAIKQNPLLAEAYSNLGNVYKERGQLQEAIEHYRHALRLKPDFIDGYINLAAALVAAGDMEGAVQAYVSALQYNPDLYCVRSDLGNLLKALGRLEEAKACYLKAIETQPNFAVAWSNLGCVFNAQGEIWLAIHHFEKAVTLDPNFLDAYINLGNVLKEARIFDRAVAAYLRALSLSPNHAVVHGNLACVYYEQGLIDLAIDTYRRAIELQPHFPDAYCNLANALKEKGSVAEAEDCYNTALRLCPTHADSLNNLANIKREQGNIEEAVRLYRKALEVFPEFAAAHSNLASVLQQQGKLQEALMHYKEAIRISPTFADAYSNMGNTLKEMQDVQGALQCYTRAIQINPAFADAHSNLASIHKDSGNIPEAIASYRTALKLKPDFPDAYCNLAHCLQIVCDWTDYDERMKKLVSIVADQLEKNRLPSVHPHHSMLYPLSHGFRKAIAERHGNLCLDKINVLHKPPYEHPKDLKLSDGRLRVGYVSSDFGNHPTSHLMQSIPGMHNPDKFEVFCYALSPDDGTNFRVKVMAEANHFIDLSQIPCNGKAADRIHQDGIHILVNMNGYTKGARNELFALRPAPIQAMWLGYPGTSGALFMDYIITDQETSPAEVAEQYSEKLAYMPHTFFIGDHANMFPHLKKKAVIDFKSNGHIYDNRIVLNGIDLKAFLDSLPDVKIVKMKCPDGGDNADSSNTALNMPVIPMNTIAEAVIEMINRGQIQITINGFSISNGLATTQINNKAATGEEVPRTIIVTTRSQYGLPEDAIVYCNFNQLYKIDPSTLQMWANILKRVPNSVLWLLRFPAVGEPNIQQYAQNMGLPQNRIIFSPVAPKEEHVRRGQLADVCLDTPLCNGHTTGMDVLWAGTPMVTMPGETLASRVAASQLTCLGCLELIAKNRQEYEDIAVKLGTDLEYLKKVRGKVWKQRISSPLFNTKQYTMELERLYLQMWEHYAAGNKPDHMIKPVEVTESA
- binding [1]: binds
- binding [2]: no binding

B2: MBP-fused OGT (enzyme, UniProt O15294 1-1046)
chain: MASSVGNVADSTEPTKRMLSFQGLAELAHREYQAGDFEAAERHCMQLWRQEPDNTGVLLLLSSIHFQCRRLDRSAHFSTLAIKQNPLLAEAYSNLGNVYKERGQLQEAIEHYRHALRLKPDFIDGYINLAAALVAAGDMEGAVQAYVSALQYNPDLYCVRSDLGNLLKALGRLEEAKACYLKAIETQPNFAVAWSNLGCVFNAQGEIWLAIHHFEKAVTLDPNFLDAYINLGNVLKEARIFDRAVAAYLRALSLSPNHAVVHGNLACVYYEQGLIDLAIDTYRRAIELQPHFPDAYCNLANALKEKGSVAEAEDCYNTALRLCPTHADSLNNLANIKREQGNIEEAVRLYRKALEVFPEFAAAHSNLASVLQQQGKLQEALMHYKEAIRISPTFADAYSNMGNTLKEMQDVQGALQCYTRAIQINPAFADAHSNLASIHKDSGNIPEAIASYRTALKLKPDFPDAYCNLAHCLQIVCDWTDYDERMKKLVSIVADQLEKNRLPSVHPHHSMLYPLSHGFRKAIAERHGNLCLDKINVLHKPPYEHPKDLKLSDGRLRVGYVSSDFGNHPTSHLMQSIPGMHNPDKFEVFCYALSPDDGTNFRVKVMAEANHFIDLSQIPCNGKAADRIHQDGIHILVNMNGYTKGARNELFALRPAPIQAMWLGYPGTSGALFMDYIITDQETSPAEVAEQYSEKLAYMPHTFFIGDHANMFPHLKKKAVIDFKSNGHIYDNRIVLNGIDLKAFLDSLPDVKIVKMKCPDGGDNADSSNTALNMPVIPMNTIAEAVIEMINRGQIQITINGFSISNGLATTQINNKAATGEEVPRTIIVTTRSQYGLPEDAIVYCNFNQLYKIDPSTLQMWANILKRVPNSVLWLLRFPAVGEPNIQQYAQNMGLPQNRIIFSPVAPKEEHVRRGQLADVCLDTPLCNGHTTGMDVLWAGTPMVTMPGETLASRVAASQLTCLGCLELIAKNRQEYEDIAVKLGTDLEYLKKVRGKVWKQRISSPLFNTKQYTMELERLYLQMWEHYAAGNKPDHMIKPVEVTESA
- binding [3]: binds

B3: HA-tagged OGT (enzyme, UniProt O15294 1-1046)
chain: MASSVGNVADSTEPTKRMLSFQGLAELAHREYQAGDFEAAERHCMQLWRQEPDNTGVLLLLSSIHFQCRRLDRSAHFSTLAIKQNPLLAEAYSNLGNVYKERGQLQEAIEHYRHALRLKPDFIDGYINLAAALVAAGDMEGAVQAYVSALQYNPDLYCVRSDLGNLLKALGRLEEAKACYLKAIETQPNFAVAWSNLGCVFNAQGEIWLAIHHFEKAVTLDPNFLDAYINLGNVLKEARIFDRAVAAYLRALSLSPNHAVVHGNLACVYYEQGLIDLAIDTYRRAIELQPHFPDAYCNLANALKEKGSVAEAEDCYNTALRLCPTHADSLNNLANIKREQGNIEEAVRLYRKALEVFPEFAAAHSNLASVLQQQGKLQEALMHYKEAIRISPTFADAYSNMGNTLKEMQDVQGALQCYTRAIQINPAFADAHSNLASIHKDSGNIPEAIASYRTALKLKPDFPDAYCNLAHCLQIVCDWTDYDERMKKLVSIVADQLEKNRLPSVHPHHSMLYPLSHGFRKAIAERHGNLCLDKINVLHKPPYEHPKDLKLSDGRLRVGYVSSDFGNHPTSHLMQSIPGMHNPDKFEVFCYALSPDDGTNFRVKVMAEANHFIDLSQIPCNGKAADRIHQDGIHILVNMNGYTKGARNELFALRPAPIQAMWLGYPGTSGALFMDYIITDQETSPAEVAEQYSEKLAYMPHTFFIGDHANMFPHLKKKAVIDFKSNGHIYDNRIVLNGIDLKAFLDSLPDVKIVKMKCPDGGDNADSSNTALNMPVIPMNTIAEAVIEMINRGQIQITINGFSISNGLATTQINNKAATGEEVPRTIIVTTRSQYGLPEDAIVYCNFNQLYKIDPSTLQMWANILKRVPNSVLWLLRFPAVGEPNIQQYAQNMGLPQNRIIFSPVAPKEEHVRRGQLADVCLDTPLCNGHTTGMDVLWAGTPMVTMPGETLASRVAASQLTCLGCLELIAKNRQEYEDIAVKLGTDLEYLKKVRGKVWKQRISSPLFNTKQYTMELERLYLQMWEHYAAGNKPDHMIKPVEVTESA
- binding [4]: binds
- binding [5]: binds
